This is an account of results in US20080153888A1, “ALPHA-2-DELTA LIGAND/NSAID THERAPEUTIC TREATMENT OF LOWER URINARY TRACT DISORDERS” (Recordati Ireland Limited, priority 2006, published 2008).

Molecules are shown by their SMILES.

The assay has as its system anesthetized rats with acetic acid bladder infusion (animal model of overactive bladder). The assay is described as follows: Cystometry in anesthetized rats with acetic acid bladder infusion.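 For all read-outs here: Single-filling cystometrograms via bladder-dome catheter, basal values taken after 60 min saline infusion, BVC as mL infused until micturition, MP as peak intravesical pressure (mm Hg).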 It is filed as in vivo, rat. The conditions noted are these: single drug; for % Bladder Volume Capacity (vs basal) ± S.E.: cumulative administration.

As for `COc1ccc2cc([C@H](C)C(=O)O)ccc2c1` [Naproxen, naproxen], the “% Bladder Volume Capacity (vs basal) ± S.E.” value by setting is: (dose 0.3 mg/kg i.v.) 29 ± 8%; (dose 1.0 mg/kg i.v.) 36 ± 8%; (dose 3 mg/kg i.v.) 41 ± 7%; (dose 10 mg/kg i.v.) 48 ± 11%; (dose 30 mg/kg i.v.) 60 ± 12%. Besides, the “ED60 (CL 95%) of recovery of Bladder Volume Capacity to basal value” (i.v., cumulative dose-response) is given as 44.7 (0.8-88.6).
